Here are results for four molecules from publication PMC4935465.

Test [1] addresses T1, Vps8-HA (Drosophila melanogaster) (UniProt Q9VRX2).
T1 sequence: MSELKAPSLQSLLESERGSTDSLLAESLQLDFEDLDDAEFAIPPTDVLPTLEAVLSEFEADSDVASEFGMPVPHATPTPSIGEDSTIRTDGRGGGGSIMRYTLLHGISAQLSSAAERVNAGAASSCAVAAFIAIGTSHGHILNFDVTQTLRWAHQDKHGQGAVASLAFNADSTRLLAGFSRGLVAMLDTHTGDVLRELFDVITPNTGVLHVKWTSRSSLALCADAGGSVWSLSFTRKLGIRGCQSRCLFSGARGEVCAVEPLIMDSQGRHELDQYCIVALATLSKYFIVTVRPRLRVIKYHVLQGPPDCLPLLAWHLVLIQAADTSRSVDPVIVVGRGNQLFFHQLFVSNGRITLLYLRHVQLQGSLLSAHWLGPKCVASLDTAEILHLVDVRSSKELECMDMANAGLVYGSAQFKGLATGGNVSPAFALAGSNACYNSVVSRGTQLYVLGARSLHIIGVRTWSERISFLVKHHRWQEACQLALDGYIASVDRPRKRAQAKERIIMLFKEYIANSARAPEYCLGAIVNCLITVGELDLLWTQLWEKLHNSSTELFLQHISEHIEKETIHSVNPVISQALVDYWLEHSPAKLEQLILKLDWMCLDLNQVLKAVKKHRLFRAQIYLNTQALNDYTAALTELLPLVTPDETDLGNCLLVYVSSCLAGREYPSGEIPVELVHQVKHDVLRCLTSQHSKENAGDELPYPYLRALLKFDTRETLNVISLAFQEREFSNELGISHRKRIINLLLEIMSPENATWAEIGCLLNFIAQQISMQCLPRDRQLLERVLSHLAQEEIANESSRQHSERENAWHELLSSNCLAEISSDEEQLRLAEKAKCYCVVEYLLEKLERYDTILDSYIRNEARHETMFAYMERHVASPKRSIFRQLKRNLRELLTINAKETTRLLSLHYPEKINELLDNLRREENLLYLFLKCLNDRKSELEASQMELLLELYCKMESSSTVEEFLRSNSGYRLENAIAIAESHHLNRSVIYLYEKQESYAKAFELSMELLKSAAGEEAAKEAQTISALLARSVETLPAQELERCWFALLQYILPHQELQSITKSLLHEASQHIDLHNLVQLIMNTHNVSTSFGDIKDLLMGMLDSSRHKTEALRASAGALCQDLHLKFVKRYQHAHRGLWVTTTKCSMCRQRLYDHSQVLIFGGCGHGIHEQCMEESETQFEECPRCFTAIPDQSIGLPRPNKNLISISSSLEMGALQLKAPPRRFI
Kind of test: co-IP; Vps8-HA precipitated with anti-HA beads from cleared lysates of vps8-HA; vps8^1/Df adults or larvae (w^1118 as control); lysis buffer 0.25% Triton X-100, 150 mM NaCl, 1 mM EDTA, 20 mM Tris-HCl pH 7.5; 4 hr at 4°C; western blot with anti-Car, anti-Dor, anti-Vps16A. (In general: A western blot detects proteins with antibodies after separation by electrophoresis.)

Test [2] concerns the target T2, Vps8 (yeast two-hybrid fusion) (Drosophila melanogaster) (UniProt Q9VRX2).
T2 sequence: T1 sequence
As to the kind of experiment: two-hybrid; pGADT7 AD and pGBKT7 BD fusions in yeast strain PJ69-4A; growth on Trp-, Leu-, Ade- plates; empty vectors as negative controls.

These are yes or no findings as the source states them, for the method shown. For some of these results: Binding seen in cells or lysates may run through a third protein. Some binding calls cover weakened binding; strength is not graded here. Sequences can lack the tags named with a protein.

B1: Dor/Vps18 (protein, UniProt Q24314 1-1002)
chain: MDTSMPNQPKFLPRIEHNSSGATANSYVATASGNPFETDEEDEIFSRHKMVLRVPSNCTGDLMHLAVSRNWLVCLLGTPERTTLLRFFLPRAIPPGEAVLEKYLSGSGYKITRMFLDPTGHHIIIALVPKSATAGVSPDFLYIHCLESPQAQQLKVRRIEKFKDHEITAVAFNPYHGNESSTGPILLGTSRGLIFETELNPAADGHVQRKQLYDLGLGRPKYPITGLKLLRVPNSSRYIIVVTSPECIYTFQETLKAEERSLQAIFAGYVSGVQEPHCEERKTDLTFSQLRFFAPPNSKYPKQWAWLCGEGIRVGELSIEANSAATLIGNTLINLDFEKTMHLSYGERRLNTPKAFVLTEYHAVLLYADHVRAICLLNQEQVYQEAFDEARVGKPLSIERDELTGSIYVYTVKTVFNLRVTREERNVWRIYLDKGQYELATAHAAEDPEHLQLVLCQRADAAFADGSYQVAADYYAETDKSFEEVCLKFMVLPDKRPIINYVKKRLSRVTTKPMETDELDEDKMNIIKALVIWLIDLYLIQINMPDKDEEWRSSWQTEYDEFMMEAHVLSCTRQNRETVRQLIAEHADPRNMAQFAIAIGDYDEVVAQQLKAECYAEALQTLINQRNPELFYKYAPELITRLPKPTVDALMAQGSRLEVEKLVPTLIIMENREQREQTQRYLEFAIYKLNTTNDAIHNFLLHLYAEHEPKLLMKYLEIQGRDESLVHYDIYYAHKVCTDLDVKEARVFLECMLRKWISAVDLALTFDMKLAKETASRPSDSKIRRKLWLRIAYHDIKGTNDVKKALNLLKECDLLRIEDLLPFFADFEKIDNFKEAICDALRDYNQRIQELQREMAETTEQTDRVTAELQQLRQHSLTVESQDTCEICEMMLLVKPFFIFICGHKFHSDCLEKHVVPLLTKEQCRRLGTLKQQLEAEVQTQAQPQSGALSKQQAMELQRKRAALKTEIEDILAADCLFCGLLISTIDQPFVDDWEQVNVEWE
For B1, the binding entry in test [1] is reported as “binds”.

B2: Dor/Vps18 (yeast two-hybrid fusion) (protein, UniProt Q24314 1-1002)
chain: B1 chain
As to B2, in test [2], the binding result was “binds”.

B3: Vps16A (protein, UniProt Q9VHG1 1-833)
chain: MPIMYNTGEWFKVRPDYYRKVELATPDWPLDLDLEYMWVEVAPYGGPLAVTRDPTKLVPVKGNARPMIRIFDTTGREMGHILWNHGKLIAMGWSDMEELICIQENATVFVYDMFGREKESYSIGDEASVTKIVEGKVFQSSAGTGVAVMTTSGRVFLKQNSSKTERKLPDIPNSSMNCSCWEIVTEGRNSYCLLGRDREVIKLFPGETVGTITANLFEKPHERIIKISVSYNHQHLALYTNTGLLWLGSVDMRQKYCEFDTGRKDMPLQMEWIMNSDNSEADAVVISYPSYLLIVNRNADRSDFPYDPVMFLVAEMDGVRIITQSSHEIIQRLPKCVENIFAVNSQEPASYLFEAQKKFEEKSYKSDEYLSMCREKIDLAVSECIEAASYEFCPETQKSLLRTAYFGKGFIRNHNPDEYMRIMRILRVLNTLRHERIAMPITFKQFSHLNTEVILSRLVFRKHYAIAIQVAKHLNLPESWILEHWAYHKVMNDPNDTEVARKITEKFKNPSVEGISFCNIASKAHQAGRDDLAIKLLELESRASLHVPLLLKMRKFDRAVGSATQSGDTELITQVLLEMKMHMMLSNLHMTIRDHPLALNIYKKIMRESNRAGLYGIYNTEDDQKAIAEYHFQNAIETEGLESNLSMIGNAYAQGRCTLEAELCADTSRLIKLQKTLSTKYNVSLNGLSIHETIQELLLIGELKEAERIRSEFKVPDRRFWWLRILTLSSQHKWEELEKLAKSKKSPIGYDPFVEVCLKQDNVMEARKYIPRCRDNRRVVWYMRANLFNEAIDSAFEQRDVHSLFELQKNQAIVNNGTLLSKVCDCIAMLEGK
With B3, the binding result in test [1] is on record as “binds”.

B4: Car/Vps33A (protein, UniProt Q9Y1I2 1-617)
chain: MFPHLKGHGQRVNLQLLQEAACRELLQQLDRIEGSKVIVLDETMIGPLDLVTRPKLFADRGIRLLALKPELHLPREVANVVYVMRPRVALMEQLAAHVKAGGRAAAGRQYHILFAPRRSCLCVSQLEVSGVLGSFGNIEELAWNYLPLDVDLVSMEMPNAFRDVSVDGDTSSLYQAAVGLVQLQRLYGRIPKIYGKGEFAHRVWEHAKQLGRDERTLYNGDKGVVDQLILLDRSIDLLSPLATQLTYEGLIDEFYGIRQNKLTLPAENFPSDGALPGGGGSGPRVEESQSLLGDTEKKTILLHSGEQLYAELRNKHFNEVTKLLARKAREIHVQMHATSQDKSVQEIKSFVENLLPQLMAQKKATSEHTAIAGLLHEQVNAVRFADDLAAEQEFMVCADIDKPSAYIEDLIACRVELNRVLRLICMQCHAASGFKEKLLNHYKRELVHVYGLEVLLTISNLEKSGLLHLQTESRAYSVLRKTLHLTVDDNVEIEPKDISYVHSFYAPLTARIVEHSLKPLGWQTLKSQINNLPGPTFEDFQAQLVGIGGRHTVTTVSEGSLLNVPRVVLVCFVGGCTFAEIAALRFLAAQEDNNVEFLIATTKVVNKHSFLDSLMSS
Turning to B4, in test [1], the binding entry is recorded as “binds”.
